Laboratory results: the supplement of paper PMC10727501
Some of the results follow. Repeats in this data set agree poorly, so a single value says little.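 Free-swimming zebrafish larvae were assessed for O-bend response probability to dark flashes (naive: first five; training: remaining flashes across four 60-flash blocks; test: later 60-flash block) and for OMR turning toward alternating leftward/rightward LED motion. Six treated larvae were compared against sixty 0.1% DMSO controls; hits required |SSMD|≥2.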

The compounds below were run on Danio rerio larvae (5 dpf, TLF) (assay: OMR-Perf (SSMD vs DMSO vehicle); higher = higher than vehicle (e.g. higher dark-flash O-bend response probability, or better optomotor performance)). Details: 10 µM; pre-incubation: 30-90 min.

SMILES	OMR-Perf
CCCC(=O)Nc1ccc(OCC(O)CNC(C)C)c(C(C)=O)c1.Cl (stereo not given) [Acebutolol HCl]	-0.12
CCCCCCCCCCCCc1ccc(S(=O)(=O)Nc2nncs2)cc1	0.155
C=CCc1cccc(/C=N/NC(=O)CN2CCN(Cc3ccccc3)CC2)c1O	-0.382
Cc1nnc(C(C)C)n1C1CC2CCC(C1)N2CC[C@H](NC(=O)C1CCC(F)(F)CC1)c1ccccc1 (stereo not given in full) [Maraviroc]	0.557
CC1(C)S[C@@H]2[C@H](NC(=O)C(C(=O)[O-])c3ccccc3)C(=O)N2[C@H]1C(=O)[O-].[Na+].[Na+] (stereo not given in full) [Carbenicillin disodium]	-0.331
O=c1[nH]cnc2c1ncn2[C@H]1CC[C@@H](CO)O1 [Didanosine]	-0.355
CO[C@H]1[C@@H](O[C@H]2O[C@@H](C)[C@H](O[C@@H]3C[C@](C)(O)[C@H](O)[C@@H](C)O3)[C@@H](N(C)C)[C@@H]2O)[C@@H](CC=O)C[C@@H](C)[C@@H](O[C@H]2CC[C@H](N(C)C)[C@H](C)O2)/C=C/C=C/C[C@@H](C)OC(=O)C[C@H]1O [Spiramycin]	-0.536
O=C(CCCCCCNC(=O)c1cnc(N(c2ccccc2)c2ccccc2)nc1)NO [Rocilinostat (ACY-1215)]	0.252
Cc1oncc1C(=O)Nc1ccc(C(F)(F)F)cc1 [Leflunomide]	-0.876
O=C(O)c1cc(-c2ccccc2)nc2ccccc12 [Cinchophen]	-0.451
O=C(CCCc1ccccc1)[O][Na] [Sodium Phenylbutyrate]	0.00818
CCOC(=O)c1ccc(N2NC(=O)/C(=C/c3ccc([N+](=O)[O-])o3)C2=O)cc1	-0.0485
CN(C)CCCN1c2ccccc2CCc2ccccc21.Cl [Imipramine HCl]	-0.305
C=CC(=O)N1CCC[C@@H](n2nc(-c3ccc(Oc4ccccc4)cc3)c3c(N)ncnc32)C1	-0.712
C=CCN1CCCC1CNC(=O)c1cc2nn[nH]c2cc1OC.Cl (stereo not given) [Alizapride HCl]	-0.463
COCC[n+]1c2c(n(Cc3cnccn3)c1C)C(=O)c1ccccc1C2=O [YM155 (Sepantronium Bromide)]	-0.00507
CC[C@@H]1C(=O)N(C)c2cnc(Nc3ccc(C(=O)NC4CCN(C)CC4)cc3OC)nc2N1C1CCCC1	0.473
Cl.Cl.Fc1cc(-c2cccc3ncc(-c4cnn(C5CCNCC5)c4)nc23)cc(F)c1CN1CCOCC1	-0.732
CC[C@@H](C)Nc1cc(C(=O)NC2CC3CCC(C2)N3c2ccc(C(=O)C3CC3)cn2)c(C)cc1C(N)=O (stereo not given in full)	-0.292
Cc1cc(C)c2c(c1)[C@@H](N(Cc1cc(C(F)(F)F)cc(C(F)(F)F)c1)c1nnn(C)n1)CCCN2C[C@H]1CC[C@H](C(=O)O)CC1	-0.262

No new results follow: 2 of the compounds above.
SMILES	OMR-Perf
C=CC(=O)N1CCC[C@@H](n2nc(-c3ccc(Oc4ccccc4)cc3)c3c(N)ncnc32)C1	-0.712
C=CCN1CCCC1CNC(=O)c1cc2nn[nH]c2cc1OC.Cl (stereo not given) [Alizapride HCl]	-0.463

(further entries)

SMILES	OMR-Perf
CN(c1ncccc1CNc1nc(Nc2ccc3c(c2)CC(=O)N3)ncc1C(F)(F)F)S(C)(=O)=O	-0.206
Cc1nc(C(=O)NCC(=O)O)c(O)c2ccc(Oc3ccccc3)cc12	0.164
NCC(=O)Nc1ccc(-n2nc(C(F)(F)F)cc2-c2ccc3c(ccc4ccccc43)c2)cc1	0.901
C[C@@H]1[C@H](NC(=O)/C(=N\OC(C)(C)C(=O)O)c2csc(N)n2)C(=O)N1S(=O)(=O)O [Aztreonam]	0.155
CN1c2ccccc2C(=O)N2CCc3c([nH]c4ccccc34)C21 (stereo not given) [Evodiamine]	-0.864
COc1ccc(-n2nc(C(N)=O)c3c2C(=O)N(c2ccc(N4CCCCC4=O)cc2)CC3)cc1 [Apixaban]	0.538
O=c1c(-c2ccc(O)cc2)coc2cc(O)ccc12 [Daidzein]	0.261
CN[C@@H](C)C(=O)N[C@H](C(=O)N1CCC[C@H]1C(=O)Nc1snnc1-c1ccccc1)C1CCCCC1	-0.0443
CC1(C)O[C@@H]2C[C@H]3[C@@H]4CCC5=CC(=O)CC[C@]5(C)[C@]4(F)[C@H](O)C[C@]3(C)[C@@]2(C(=O)CCl)O1 [Halcinonide]	0.255
Cc1nc(Nc2ncc(C(=O)Nc3c(C)cccc3Cl)s2)cc(N2CCN(CCO)CC2)n1 [Dasatinib]	0.426
COc1cccc2c1C(=O)c1c(O)c3c(c(O)c1C2=O)C[C@@](O)(C(=O)CO)C[C@H]3O[C@H]1C[C@H](N)[C@@H](O)[C@H](C)O1.Cl [Epirubicin HCl]	-0.371
CC1(C)O[C@@H]2[C@@H](CO[C@@]3(COS(N)(=O)=O)OC(C)(C)O[C@@H]23)O1 [Topiramate]	-0.381
CCN(CC)CC(=O)Nc1c(C)cccc1C [Lidocaine]	-0.326
O=C(CS(=O)Cc1ccco1)NC/C=C\COc1cc(CN2CCCCC2)ccn1 (stereo not given) [Lafutidine]	-0.389
CC(C)(Oc1ccc(CCNC(=O)c2ccc(Cl)cc2)cc1)C(=O)O [Bezafibrate]	0.495
Brc1c(NC2=NCCN2)ccc2nccnc12.O=C(O)[C@@H](O)[C@@H](O)C(=O)O [Brimonidine Tartrate]	-0.445
CCC(CC)n1ccc2c(C(=O)NCc3c(C)cc(C)[nH]c3=O)cc(C#N)cc21	0.237
CC(=O)Oc1cc(C(F)(F)F)ccc1C(=O)O [Triflusal]	0.471
C[C@H]1CCO[C@H]2Cn3cc(C(=O)NCc4ccc(F)cc4F)c(=O)c(O)c3C(=O)N21	0.00408
NCC[C@H](O)C(=O)N[C@@H]1C[C@H](N)[C@H](O[C@H]2O[C@H](CN)[C@@H](O)[C@@H](O)[C@H]2O)[C@H](O)[C@H]1O[C@H]1O[C@H](CO)[C@@H](O)[C@@H](N)[C@H]1O.O=S(=O)(O)O.O=S(=O)(O)O [Amikacin sulfate]	-0.0075
